These are yes or no findings as the source states them, for the method shown. In cells and extracts the contact can be indirect. A result given as binding can be weak or reduced; the word gives no strength.
Target: FLAG-tagged ERG1 (ETS-related gene 1) (UniProt P11308)
Assay: co-IP; HEK293 cells transfected with expression constructs (FLAG-ERG1, Myc-KDM4B); immunoprecipitation with anti-FLAG or IgG; lysates in RIPA buffer (50 mM Tris pH7.4, 150 mM NaCl, 1% Triton X-100), Protein A/G-plus agarose beads, Western blot

The chains behind the UniProt entries cited, without tags or fusion partners. Where a name states a change or a piece, a line headed by the entry shows the natural chain unless it says otherwise.
UniProt P11308: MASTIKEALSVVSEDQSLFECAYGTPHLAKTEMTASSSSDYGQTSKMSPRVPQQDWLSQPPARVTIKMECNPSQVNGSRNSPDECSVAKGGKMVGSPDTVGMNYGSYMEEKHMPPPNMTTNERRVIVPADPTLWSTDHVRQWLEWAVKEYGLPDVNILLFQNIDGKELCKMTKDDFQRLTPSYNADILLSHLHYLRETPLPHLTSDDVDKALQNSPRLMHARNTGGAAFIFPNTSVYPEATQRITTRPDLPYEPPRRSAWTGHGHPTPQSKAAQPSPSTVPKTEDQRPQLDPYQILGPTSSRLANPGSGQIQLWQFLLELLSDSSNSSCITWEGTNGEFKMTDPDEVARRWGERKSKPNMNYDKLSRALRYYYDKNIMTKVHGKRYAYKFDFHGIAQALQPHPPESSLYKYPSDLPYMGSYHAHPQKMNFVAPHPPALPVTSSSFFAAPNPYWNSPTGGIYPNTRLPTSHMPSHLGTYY
UniProt O94953: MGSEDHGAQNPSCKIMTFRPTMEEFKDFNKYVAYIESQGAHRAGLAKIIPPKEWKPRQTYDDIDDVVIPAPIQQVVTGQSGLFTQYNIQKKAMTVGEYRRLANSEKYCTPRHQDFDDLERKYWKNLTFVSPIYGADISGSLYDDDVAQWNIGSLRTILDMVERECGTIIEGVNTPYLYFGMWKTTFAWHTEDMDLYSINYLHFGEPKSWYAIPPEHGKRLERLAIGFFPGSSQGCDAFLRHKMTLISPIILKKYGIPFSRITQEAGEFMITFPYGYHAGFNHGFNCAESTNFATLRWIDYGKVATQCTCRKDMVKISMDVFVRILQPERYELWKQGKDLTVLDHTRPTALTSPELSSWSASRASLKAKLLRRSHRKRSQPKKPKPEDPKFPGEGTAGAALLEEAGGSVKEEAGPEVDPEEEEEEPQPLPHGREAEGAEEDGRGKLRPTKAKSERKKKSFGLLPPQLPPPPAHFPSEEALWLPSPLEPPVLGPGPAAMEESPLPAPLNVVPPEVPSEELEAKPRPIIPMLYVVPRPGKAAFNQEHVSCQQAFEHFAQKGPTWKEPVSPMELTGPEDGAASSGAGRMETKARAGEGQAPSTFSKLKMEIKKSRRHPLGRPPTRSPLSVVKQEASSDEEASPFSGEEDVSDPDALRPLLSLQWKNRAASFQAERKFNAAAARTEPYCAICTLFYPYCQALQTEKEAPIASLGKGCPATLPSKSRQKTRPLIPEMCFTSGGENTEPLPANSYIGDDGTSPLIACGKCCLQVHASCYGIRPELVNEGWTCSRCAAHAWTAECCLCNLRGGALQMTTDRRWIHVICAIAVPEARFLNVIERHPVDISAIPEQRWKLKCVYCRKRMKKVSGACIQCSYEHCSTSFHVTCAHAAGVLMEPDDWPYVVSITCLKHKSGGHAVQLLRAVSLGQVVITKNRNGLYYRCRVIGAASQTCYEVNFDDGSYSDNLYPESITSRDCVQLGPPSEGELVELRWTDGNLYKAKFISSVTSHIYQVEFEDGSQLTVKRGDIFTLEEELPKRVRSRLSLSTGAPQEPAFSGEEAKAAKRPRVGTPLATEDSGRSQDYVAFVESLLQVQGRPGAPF

binding: binds
Substance: Myc-tagged KDM4B (from UniProt O94953 1-1096) (enzyme)
